Data from article PMC4924746.
No constants are given. Whether binding was seen depends on the method and setting. In cells and extracts the contact can be indirect. Some binding calls cover weakened binding; strength is not graded here. Tags and fused reporters may be left off the sequences shown.

Sequences of proteins named here, by UniProt entry; tags and fusion partners are left off. Residues count along the entry.
UniProt P02545, residues 1-646: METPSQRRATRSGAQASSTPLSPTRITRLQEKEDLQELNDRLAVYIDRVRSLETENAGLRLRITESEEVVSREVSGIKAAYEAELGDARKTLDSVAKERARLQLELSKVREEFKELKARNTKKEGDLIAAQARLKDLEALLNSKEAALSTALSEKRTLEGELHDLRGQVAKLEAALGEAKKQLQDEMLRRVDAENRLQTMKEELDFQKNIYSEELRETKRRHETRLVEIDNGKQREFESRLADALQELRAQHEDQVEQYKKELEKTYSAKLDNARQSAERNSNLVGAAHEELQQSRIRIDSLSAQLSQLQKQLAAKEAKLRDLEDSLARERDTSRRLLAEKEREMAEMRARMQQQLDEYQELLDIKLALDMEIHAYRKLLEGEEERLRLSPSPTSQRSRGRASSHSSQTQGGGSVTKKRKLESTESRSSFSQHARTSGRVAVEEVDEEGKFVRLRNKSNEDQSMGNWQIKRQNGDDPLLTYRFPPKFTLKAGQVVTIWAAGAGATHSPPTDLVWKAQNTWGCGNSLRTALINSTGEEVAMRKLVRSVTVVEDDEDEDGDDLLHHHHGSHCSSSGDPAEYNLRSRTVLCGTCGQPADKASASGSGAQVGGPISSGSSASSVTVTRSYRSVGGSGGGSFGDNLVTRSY

Biological target: T1, SPANX-C-V5 fusion protein (UniProt Q9NY87)
T1 sequence: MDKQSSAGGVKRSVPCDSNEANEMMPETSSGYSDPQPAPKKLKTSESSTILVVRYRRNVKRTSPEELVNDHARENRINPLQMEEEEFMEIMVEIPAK
Experiment: co-IP; anti-V5 immunoprecipitates of cell lysates, immunoblotted with antibodies against V5 and the endogenous partner; immunoprecipitation as described in ref. 59

Lamin A/C (Lamin A and Lamin C, products of the LMNA gene) (from UniProt P02545 1-646)
binding: binds
